Experimental findings from article PMC3799431 are described below.

Protein sequences, listed by entry. Tags and fused reporters are not part of them.
UniProt Q13285: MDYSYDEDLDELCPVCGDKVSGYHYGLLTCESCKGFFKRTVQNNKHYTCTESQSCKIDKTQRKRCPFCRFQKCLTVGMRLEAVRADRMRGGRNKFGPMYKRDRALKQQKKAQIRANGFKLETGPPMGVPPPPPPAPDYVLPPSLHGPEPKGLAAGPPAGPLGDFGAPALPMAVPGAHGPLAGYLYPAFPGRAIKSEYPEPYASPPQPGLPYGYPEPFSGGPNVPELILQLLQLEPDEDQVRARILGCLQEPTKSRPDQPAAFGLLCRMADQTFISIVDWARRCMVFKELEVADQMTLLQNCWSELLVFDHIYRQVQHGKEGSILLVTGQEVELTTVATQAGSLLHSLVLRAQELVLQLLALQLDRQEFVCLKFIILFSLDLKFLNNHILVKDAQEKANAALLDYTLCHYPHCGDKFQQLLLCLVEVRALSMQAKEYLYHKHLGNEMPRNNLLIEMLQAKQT

No constants are given. Whether binding was seen depends on the method and setting. Binding seen in cells or lysates may run through a third protein. Some results given as binding are weak or reduced against the parent protein; the word gives no strength.

For this test, the target named is T1, Neuron-Restrictive Silencer Factor/RE1-Silencing Transcription Factor (NRSF/REST) (human (endogenous in H295R)) (UniProt Q13127).
T1 sequence: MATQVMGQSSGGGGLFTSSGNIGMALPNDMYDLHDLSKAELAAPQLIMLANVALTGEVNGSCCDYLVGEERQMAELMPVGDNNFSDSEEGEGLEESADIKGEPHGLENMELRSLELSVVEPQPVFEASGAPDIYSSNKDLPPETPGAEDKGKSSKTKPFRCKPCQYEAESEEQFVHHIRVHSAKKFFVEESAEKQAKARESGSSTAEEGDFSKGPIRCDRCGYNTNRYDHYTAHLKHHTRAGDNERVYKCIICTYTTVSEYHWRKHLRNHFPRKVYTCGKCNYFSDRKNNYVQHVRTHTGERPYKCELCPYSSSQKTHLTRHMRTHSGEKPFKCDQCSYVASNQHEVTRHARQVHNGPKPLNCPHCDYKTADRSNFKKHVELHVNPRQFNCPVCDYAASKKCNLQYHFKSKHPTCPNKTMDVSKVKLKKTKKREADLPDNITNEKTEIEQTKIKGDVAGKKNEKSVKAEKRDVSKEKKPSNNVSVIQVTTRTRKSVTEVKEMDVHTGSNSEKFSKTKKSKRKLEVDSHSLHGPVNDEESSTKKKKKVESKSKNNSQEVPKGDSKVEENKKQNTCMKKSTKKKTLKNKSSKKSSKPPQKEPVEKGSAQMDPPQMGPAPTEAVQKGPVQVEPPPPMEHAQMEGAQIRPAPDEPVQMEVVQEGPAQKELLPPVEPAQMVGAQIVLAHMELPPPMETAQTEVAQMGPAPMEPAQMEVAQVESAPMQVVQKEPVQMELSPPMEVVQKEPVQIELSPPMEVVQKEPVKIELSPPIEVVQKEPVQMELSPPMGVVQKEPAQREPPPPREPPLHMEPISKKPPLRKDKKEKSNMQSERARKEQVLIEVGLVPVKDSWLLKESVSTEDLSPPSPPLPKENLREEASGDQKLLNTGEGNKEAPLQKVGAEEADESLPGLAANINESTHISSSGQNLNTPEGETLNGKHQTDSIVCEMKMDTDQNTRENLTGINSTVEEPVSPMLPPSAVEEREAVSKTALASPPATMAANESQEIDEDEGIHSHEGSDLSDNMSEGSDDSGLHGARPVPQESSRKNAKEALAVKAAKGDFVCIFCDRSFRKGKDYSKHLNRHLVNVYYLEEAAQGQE
Description: co-IP; nuclear extract of H295R/TR SF-1 cells, salt adjusted to 150 mM; anti SF-1 or anti NRSF/REST antibody (or preimmune rabbit IgG) overnight at 4°C, Protein A magnetic beads; washes with 20 mM HEPES-KOH pH 7.5, 150 mM NaCl, 0.5 mM EDTA, 0.5% NP-40; immunoblot with the same antibodies.

“Steroidogenic Factor-1 (SF-1) (from UniProt Q13285 1-461)”: the binding entry is “binds”.
